PMC7986153 (Angewandte Chemie (International Ed. in English), 2021)
HELM strings list residues between dots; [ac] is acetyl, [am] amide, other brackets name non-standard units.

Test: general procedure: peptide synthesis; Polystyrene resin with a 2-chlorotrityl chloride linker; COMU, Oxyma, DIPEA
Settings: whole synthesis

PEPTIDE1{[ac].I.E.P.D.[PABA-dioxetane]}$$$$V2.0
final HPLC purity (HPLC-MS at 220 nm): >95%
isolated yield (overall): around 30%
